Data taken from patent US20220257665A1, “APPLICATION OF […] AGENTS TO STEM CELL DERIVED CARDIOMYOCYTES AND USES THEREOF” (priority 2019, published 2022).

Assays:
[1] = cited from earlier work
SCN5A = conditions: 5 days exposure to 0.1 μM and 1 μM amiodarone (FIG. 8)

Structure (SMILES) | typical plasma concentrations in vivo [1] | effect on the expression of SCN5A (SCN5A)
CCN(CC)CC(=O)Nc1c(C)cccc1C [Lidocaine, lidocaine] | 2 to 6 µg/mL | –
CCCCc1oc2ccccc2c1C(=O)c1cc(I)c(OCCN(CC)CC)c(I)c1 [amiodarone] | 0.5 to 2.5 µg/mL | no effect
